# From PubChem BioAssay AID1347076 (National Center for Advancing Translational Sciences (NCATS), 2019)
# In all, about 400,000 compounds went through this assay and about 13,000 (3.2%) were called active. The shares of active, inactive and inconclusive entries below differ from those in the screen. Calls come from the whole dose curve; as a rule, active = well fitted cell-killing curve with a large enough effect; inconclusive = small, poorly fitted or top-dose-only effect, or effect the other way; inactive = flat fitted curve, though single readings scatter. A potency beside an inconclusive call is a rough fit, not a confirmed value.
# Test: qHTS assay for MDR1-selective chemotherapeutics: Primary screen using the drug-selected MDR subline cells KB-V1; note: nearly all actives have a fitted effect of over 60% in size
# Conditions: KB-V1 MDR cells viability, CellTiter-Glo, 72 h; activity change, negative = cytotoxicity: at 46.1 µM (top of the series)
# Outline: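 Drug-selected KB-V1 cells, grown in DMEM lacking phenol red with 10% FBS, receive compound titrations; after three days at 37 degrees C, surviving cell ATP is quantified by CellTiter-Glo luminescence and responses normalized and curve-fitted.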
# % is set by controls: 0 for no effect and ±100 for the full control effect; potency is the fitted concentration of half-maximal effect.
Structure (SMILES),Potency,"activity change, negative = cytotoxicity"
Cc1cccc(-n2ncc(C(=O)NCc3ccco3)c2C2CCN(C(=O)OC(C)(C)C)CC2)c1,inactive,–
Fc1cccc(CCN2C(=S)NC[C@@H]2CC2CCCCC2)c1,"inconclusive: 10.3 µM [cytotoxic, single point]",–
NC(COCc1ccccc1)c1csc(Nc2ccccn2)n1 (stereo not drawn),inactive,–
Cc1ccc(CNCc2cn[nH]c2-c2ccc(C)cc2)cc1,inactive,–
CC(CC(=O)c1ccccc1)=NCCCN=C(C)CC(=O)c1ccccc1,"inconclusive: 14.6 µM [cytotoxic, partial curve, poor fit]",–
Cc1ccc(S(=O)(=O)CCc2nc3ccccc3n2CCC#N)cc1,"inconclusive: 23.1 µM [cytotoxic, partial curve]",–
CCc1nn(CC(=O)NCCN(CC)CC)c(=O)c2cc3occc3n12,"inconclusive: 23.1 µM [rising, partial curve, poor fit]",–
Cc1nc2cccnc2n1C1CCN(S(=O)(=O)c2ccc(C(C)C)cc2)CC1,inactive,–
CC(C)CC1OC(C)CC2=C1C(=O)OC(C)(C)O2 (stereo not drawn),"inconclusive: 29.1 µM [rising, single point]",–
O=C(c1ccccc1Cl)N1CCN(CCc2ccccn2)CC1,inactive,–
Cc1ccc2nc(-c3sc4nc(C)cc(C)c4c3N)[nH]c2c1,"inconclusive: 6.51 µM [cytotoxic, full curve]",–
O=C(NCc1cccc(F)c1F)C1CCC(=O)N(C2CC2)C1 (stereo not drawn),"inconclusive: 29.1 µM [rising, single point]",–
CCOc1ccc2[nH]c(=O)c(CN(Cc3cccs3)Cc3nnnn3C(C)(C)C)cc2c1,active: 20.6 µM,–
O=C(COC(=O)CC1CC2CCC1C2)Nc1ccc(F)cc1 (stereo not drawn),"inconclusive: 23.1 µM [rising, single point]",–
O=C(COC(=O)/C=C/c1ccc(Cl)cc1)NC1CC1,"inconclusive: 29.1 µM [rising, single point]",–
COc1cccc(C(=O)Nc2ccccc2-c2nnc(-c3ccc(C(C)(C)C)cc3)o2)c1,"inconclusive: 29.1 µM [rising, single point]",–
c1ccc(-n2nnnc2-n2nnc3ccccc32)cc1,inactive,–
Cc1cccc(N2CCN(C(=O)C3CCN(S(=O)(=O)c4cccc5nsnc45)CC3)CC2C)c1 (stereo not drawn),"inconclusive: 20.6 µM [cytotoxic, single point]",–
O=C(C1CCCO1)N1CCN(c2ccccn2)CC1 (stereo not drawn),"inconclusive: 29.1 µM [rising, single point]",–
CCCCN(CC)CCNC(=O)c1cc2c(=O)n(C)c3ccccc3c2s1,"inconclusive: 10.3 µM [cytotoxic, partial curve]",–
c1cncc(-c2nnc(-c3cccnc3)nn2)c1,"inconclusive: 23.1 µM [cytotoxic, single point]",–
Oc1c(N=NC(=S)Nc2ccccc2F)c2ccccc2n1Cc1ccccc1Cl,inactive,–
Nc1ccc(-c2ccc(N)c(C(=O)O)c2)cc1C(=O)O,–,inconclusive: -19.4%
Cc1ccc(-n2nnnc2-c2cnn(-c3cccc(F)c3)c2C(F)(F)F)cc1,"inconclusive: 16.4 µM [cytotoxic, partial curve]",–
CN(C)c1nccc(N(Cc2ccccc2)Cc2ccccc2)c1C#N,active: 13 µM,–

Structure (SMILES),Potency,"activity change, negative = cytotoxicity"
Cc1ccc(S(=O)(=O)Nc2ccc(NC(=O)c3c(F)c(F)c(F)c(F)c3F)cc2)cc1,inactive,–
COc1cc(NC(=O)C2CC(c3ccccc3Cl)=NO2)cc(OC)c1OC (stereo not drawn),"inconclusive: 23.1 µM [cytotoxic, single point]",–
COc1ccc(Nc2nc(NCc3ccco3)nc(N/N=C/c3ccccc3F)n2)cc1,"inconclusive: 10.3 µM [cytotoxic, partial curve]",–
O=C(NC1CCCc2ccccc21)c1cc(F)cc(F)c1 (stereo not drawn),"inconclusive: 20.6 µM [rising, single point]",–
CCOc1ccc(CC(=O)OCn2nnc3ccccc3c2=O)cc1,"inconclusive: 29.1 µM [rising, single point]",–
Cc1sc(NC(=O)C2=COCCO2)c(C(N)=O)c1C,"inconclusive: 20.6 µM [cytotoxic, partial curve, poor fit]",–
CCOc1ccc(NS(=O)(=O)c2ccc(C(=O)N3CCCCCC3)cc2)cc1,"inconclusive: 29.1 µM [cytotoxic, single point]",–
Cc1c(C(=O)OCc2nnc(-c3ccccc3)o2)oc2ccccc12,inactive,–
COc1ccc(S(=O)(=O)n2nc(-c3cc(OC)c(OC)c(OC)c3)cc2N)cc1OC,inactive,–
CC(C)c1ccc(Nc2nc(Cl)nc(NCc3ccco3)n2)cc1,inactive,–
CN=C(Nc1ccc(Cl)cc1)c1cccc(C(F)(F)F)c1,inactive,–
COc1ccc(-n2nc(C(=O)N3CCN(c4cccc(C(F)(F)F)c4)CC3)c3c4ccccc4n(C)c3c2=O)cc1Cl,"inconclusive: 29.1 µM [rising, single point]",–
COc1cc(S(=O)(=O)NCc2ccc(F)cc2)ccc1-n1cnnn1,"inconclusive: 20.6 µM [cytotoxic, partial curve, poor fit]",–
CCOc1ccccc1NC(=O)CSc1nnc(CNC(=O)c2ccccc2F)o1,"inconclusive: 20.6 µM [rising, single point]",–
CC(=O)c1sc(Nc2ccccc2)nc1C,"inconclusive: 20.6 µM [cytotoxic, single point]",–
CCOc1ccc(CCNC(=O)Cc2ccc(NC(=O)N3CCSc4ncccc43)cc2)cc1,inactive,–
CC(C)c1ccc2[nH]c3c(c2c1)CCCC3=O,active: 13 µM,–
O=C(Nc1ccccc1C(=O)O)c1cccc(C(=O)Nc2ccccc2C(=O)O)c1,"inconclusive: 25.9 µM [rising, single point]",–
CCn1cc(C(=O)NC2CCCCCC2)c2cc(OC)c(OC)cc2c1=O,inactive,–
CCc1ccc(N(CC(=O)NC(C)(C)CC)C(=O)CCC(=O)Nc2nccs2)cc1,"inconclusive: 10.3 µM [cytotoxic, partial curve, poor fit]",–
O=C(Nc1ccc(Oc2ccccc2)cc1)c1ccc2sc([C@H]3C[C@H](O)[C@@H](CO)O3)nc2c1,inactive,–
Cc1oc2ncn(C)c(=O)c2c1C(=O)NCc1ccccc1,inactive,–
COc1ccc(-c2n[nH]c(C)c2-c2ccc(Cl)cc2)c(O)c1OC,"inconclusive: 23.1 µM [cytotoxic, single point]",–
CCc1nnc(NC(=O)c2ccc(N(C)S(=O)(=O)c3ccccc3)cc2)s1,active: 6.51 µM,–
C=CCNc1oc(-c2cccs2)nc1C#N,"inconclusive: 16.4 µM [cytotoxic, single point]",–

Structure (SMILES),Potency,"activity change, negative = cytotoxicity"
OC[C@@H]1CN(Cc2ccccc2)C[C@H](n2cnc3c(NCc4ccco4)ncnc32)O1,inactive,–
CS(=O)(=O)c1ccccc1C(=O)Nc1ccc(S(=O)(=O)N2CCCC2)cc1,inactive,–
COc1cc(OC)cc(C(=O)Nc2nc(-c3nnn(-c4ccc(F)c(Cl)c4)c3C)ns2)c1,inactive,–
CC(=O)n1cc(N(C(=O)CCl)c2ccc([N+](=O)[O-])cc2)c2ccccc21,"inconclusive: 29.1 µM [cytotoxic, single point]",–
COCCN(C(=O)/C=C/c1ccccc1)c1nnc(-c2cccnc2)s1,inactive,–
COC(=O)c1ccc(NC(=O)CN2CCN(c3ccccc3)CC2)cc1,"inconclusive: 29.1 µM [cytotoxic, single point]",–
CCOc1ccc(S(=O)(=O)N2CCN(CN3C(=O)CC4(CCCC4)C3=O)CC2)cc1,inactive,–
C/C(=N\NC(=O)c1cccc(Br)c1)c1ccc(Br)cc1,"inconclusive: 4.61 µM [cytotoxic, partial curve, poor fit]",–
COc1ccc(CNC(=O)CNC(c2ccccc2)c2ccccc2)cc1OC,active: 8.2 µM,–
C=CCOC(=O)C1=C(C)NC(C)=C(C(=O)OCC=C)C1/C=C/c1ccccc1,"inconclusive: 16.4 µM [cytotoxic, single point]",–
O=C(NCC1CCCO1)c1cc2c([nH]c3ccccc32)c(-c2ccc(F)cc2)n1 (stereo not drawn),active: 11.6 µM,–
CCS(=O)(=O)c1ccc2oc(SCC(=O)NC34CC5CC(CC(C5)C3)C4)nc2c1,active: 14.6 µM,–
COc1cc(NC(=O)c2ccccc2)c(OC)cc1NC(=O)CN1CCOCC1,inactive,–
CCc1noc(C)c1C(=O)N1CC(C)SC1=Nc1ccc(Cl)cc1 (stereo not drawn),active: 16.4 µM,–
COCCNC(=O)CSc1nc2cc3c(cc2c(=O)n1Cc1ccco1)OCO3,"inconclusive: 11.2 µM [cytotoxic, partial curve, poor fit]",–
CCC(C(=O)NC1CCCC1)N(C(=O)Cn1nnc(-c2ccc(C)o2)n1)c1ccc(OC)cc1 (stereo not drawn),"inconclusive: 13 µM [cytotoxic, partial curve, poor fit]",–
Cc1ccccc1C(=O)NC1CCN(C(=O)NCc2ccccc2)CC1,inactive,–
COc1ccc(S(=O)(=O)N(C)C[C@H]2Oc3ccc(NC(=O)NC4CCCCC4)cc3C(=O)N([C@H](C)CO)C[C@@H]2C)cc1,inactive,–
COc1cc(-c2noc(-c3ccc(N4CCCCC4)c([N+](=O)[O-])c3)n2)cc(OC)c1OC,"inconclusive: 29.1 µM [rising, single point]",–
COc1ccc(Cn2c(N)c(S(=O)(=O)c3cccs3)c3nc4ccccc4nc32)cc1,inactive,–
CCOC(=O)C1=C(C)NC2=C(C(=O)c3ccccc32)C1c1ccc([N+](=O)[O-])o1 (stereo not drawn),–,inconclusive: -31.4% [cytotoxic]
COC(=O)C1CCN(C(=O)/C=C/c2ccccc2)CC1,"inconclusive: 3.66 µM [cytotoxic, partial curve, poor fit]",–
CCN(Cc1ccncc1)C(=O)c1ccc(C)o1,"inconclusive: 20.6 µM [rising, partial curve, poor fit]",–
